Data: publication PMC9410877

By UniProt entry, the sequences of proteins in these tests, tags left out.
UniProt Q3URK3: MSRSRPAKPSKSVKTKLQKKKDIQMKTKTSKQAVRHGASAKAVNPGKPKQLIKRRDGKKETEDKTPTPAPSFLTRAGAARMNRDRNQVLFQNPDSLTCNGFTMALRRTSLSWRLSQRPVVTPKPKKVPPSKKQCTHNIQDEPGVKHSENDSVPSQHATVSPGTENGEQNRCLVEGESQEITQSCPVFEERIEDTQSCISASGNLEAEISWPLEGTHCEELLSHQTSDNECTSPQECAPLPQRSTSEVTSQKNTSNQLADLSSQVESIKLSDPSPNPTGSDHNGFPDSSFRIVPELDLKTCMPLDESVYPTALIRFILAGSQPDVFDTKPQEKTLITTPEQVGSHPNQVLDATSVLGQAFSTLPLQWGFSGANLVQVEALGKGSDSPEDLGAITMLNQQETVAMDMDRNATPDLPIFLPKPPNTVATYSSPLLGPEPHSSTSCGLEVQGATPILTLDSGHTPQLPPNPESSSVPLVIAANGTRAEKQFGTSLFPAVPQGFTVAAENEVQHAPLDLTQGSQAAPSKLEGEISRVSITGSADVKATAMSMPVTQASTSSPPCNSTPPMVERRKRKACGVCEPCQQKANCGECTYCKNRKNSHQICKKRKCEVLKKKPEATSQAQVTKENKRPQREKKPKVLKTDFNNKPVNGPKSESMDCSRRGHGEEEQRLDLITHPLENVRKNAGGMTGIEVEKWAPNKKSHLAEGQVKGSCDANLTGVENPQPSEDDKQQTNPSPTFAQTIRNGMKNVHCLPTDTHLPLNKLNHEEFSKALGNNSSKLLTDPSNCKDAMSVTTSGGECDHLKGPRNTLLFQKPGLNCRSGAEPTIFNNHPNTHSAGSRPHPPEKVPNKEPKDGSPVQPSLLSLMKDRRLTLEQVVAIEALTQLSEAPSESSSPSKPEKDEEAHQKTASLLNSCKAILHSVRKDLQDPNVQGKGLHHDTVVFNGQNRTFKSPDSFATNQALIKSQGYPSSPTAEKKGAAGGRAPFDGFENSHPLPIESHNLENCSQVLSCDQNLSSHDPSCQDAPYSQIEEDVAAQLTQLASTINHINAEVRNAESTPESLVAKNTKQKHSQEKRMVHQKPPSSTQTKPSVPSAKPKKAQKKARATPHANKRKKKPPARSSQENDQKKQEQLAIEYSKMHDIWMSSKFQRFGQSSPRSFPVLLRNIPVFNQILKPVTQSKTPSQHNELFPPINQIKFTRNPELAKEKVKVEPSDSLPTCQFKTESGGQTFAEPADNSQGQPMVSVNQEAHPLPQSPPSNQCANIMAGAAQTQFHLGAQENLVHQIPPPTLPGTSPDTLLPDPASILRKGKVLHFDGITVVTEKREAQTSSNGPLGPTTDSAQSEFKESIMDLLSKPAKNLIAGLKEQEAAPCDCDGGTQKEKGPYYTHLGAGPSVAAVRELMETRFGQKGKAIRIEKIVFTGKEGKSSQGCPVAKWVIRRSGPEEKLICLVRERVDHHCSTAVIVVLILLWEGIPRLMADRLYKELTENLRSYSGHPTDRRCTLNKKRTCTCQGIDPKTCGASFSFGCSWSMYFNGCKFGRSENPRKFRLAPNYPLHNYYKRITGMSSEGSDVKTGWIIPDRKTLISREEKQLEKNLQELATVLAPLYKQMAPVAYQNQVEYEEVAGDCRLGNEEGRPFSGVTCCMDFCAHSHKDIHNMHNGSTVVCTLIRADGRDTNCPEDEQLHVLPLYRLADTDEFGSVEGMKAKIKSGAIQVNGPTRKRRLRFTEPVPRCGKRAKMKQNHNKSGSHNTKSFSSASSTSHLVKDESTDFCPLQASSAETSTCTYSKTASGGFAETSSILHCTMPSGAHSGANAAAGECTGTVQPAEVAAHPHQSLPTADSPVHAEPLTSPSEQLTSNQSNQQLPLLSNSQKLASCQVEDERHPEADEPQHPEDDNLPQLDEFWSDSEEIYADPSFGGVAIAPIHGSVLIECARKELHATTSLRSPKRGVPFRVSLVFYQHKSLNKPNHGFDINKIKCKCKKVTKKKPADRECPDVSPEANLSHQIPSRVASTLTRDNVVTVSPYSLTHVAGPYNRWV
UniProt Q921E6: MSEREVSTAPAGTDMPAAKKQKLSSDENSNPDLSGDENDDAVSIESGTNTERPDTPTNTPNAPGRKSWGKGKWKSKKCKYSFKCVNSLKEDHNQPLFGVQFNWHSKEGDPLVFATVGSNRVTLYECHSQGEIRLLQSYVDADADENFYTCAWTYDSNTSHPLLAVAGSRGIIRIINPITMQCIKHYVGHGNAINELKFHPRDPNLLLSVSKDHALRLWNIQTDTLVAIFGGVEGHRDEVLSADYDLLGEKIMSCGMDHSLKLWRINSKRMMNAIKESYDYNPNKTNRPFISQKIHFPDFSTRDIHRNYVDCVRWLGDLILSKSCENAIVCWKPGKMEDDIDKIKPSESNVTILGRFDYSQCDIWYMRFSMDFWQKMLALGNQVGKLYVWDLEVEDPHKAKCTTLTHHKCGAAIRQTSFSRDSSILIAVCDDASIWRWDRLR
UniProt Q80U70: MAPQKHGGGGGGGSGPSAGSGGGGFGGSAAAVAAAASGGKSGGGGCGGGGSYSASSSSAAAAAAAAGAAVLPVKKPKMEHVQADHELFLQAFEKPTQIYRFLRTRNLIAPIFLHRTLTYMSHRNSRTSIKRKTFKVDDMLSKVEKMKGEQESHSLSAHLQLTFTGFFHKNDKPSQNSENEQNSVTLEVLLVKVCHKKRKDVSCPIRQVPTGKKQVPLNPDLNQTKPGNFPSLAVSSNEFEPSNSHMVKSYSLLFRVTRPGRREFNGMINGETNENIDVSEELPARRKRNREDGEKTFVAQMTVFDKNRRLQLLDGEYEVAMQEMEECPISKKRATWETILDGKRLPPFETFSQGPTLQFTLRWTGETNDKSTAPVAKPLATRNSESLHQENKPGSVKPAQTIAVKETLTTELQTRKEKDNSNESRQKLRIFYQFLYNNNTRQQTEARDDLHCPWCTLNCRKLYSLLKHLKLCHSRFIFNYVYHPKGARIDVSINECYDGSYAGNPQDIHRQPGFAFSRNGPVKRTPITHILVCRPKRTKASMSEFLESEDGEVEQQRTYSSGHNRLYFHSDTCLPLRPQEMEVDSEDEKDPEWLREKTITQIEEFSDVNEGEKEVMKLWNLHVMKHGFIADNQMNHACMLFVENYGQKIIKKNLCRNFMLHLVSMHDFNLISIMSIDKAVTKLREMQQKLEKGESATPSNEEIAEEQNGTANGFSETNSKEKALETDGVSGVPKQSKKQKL
UniProt P83917: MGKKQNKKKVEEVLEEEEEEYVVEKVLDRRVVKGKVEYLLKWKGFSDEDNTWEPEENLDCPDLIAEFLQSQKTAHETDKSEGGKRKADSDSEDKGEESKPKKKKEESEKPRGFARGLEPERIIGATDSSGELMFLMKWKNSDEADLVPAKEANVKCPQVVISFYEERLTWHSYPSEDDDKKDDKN

target: TET1 (ten-eleven translocation 1) (mouse (endogenous in mESCs)) (UniProt Q3URK3); assay: affinity purification with mass spectrometry; ChIP-MS of TET1: WT and Tet1 KO mESCs (Serum LIF), triplicates, crosslinked with 1% paraformaldehyde, chromatin sheared by sonication (no MNase), anti-TET1 antibody (09-872-I, Sigma-Aldrich) overnight at 4°C, protein A/G beads, two low salt (140 mM NaCl), one high salt (500 mM NaCl) and two TBS washes, on-bead trypsin digestion, LC-MS/MS, MaxLFQ; t-test, FDR 5%, log2 fold change cut-off 1

binding | Substance
binds | EED (from UniProt Q921E6 1-441)
binds | SUZ12 (from UniProt Q80U70 1-741)
binds | heterochromatin protein 1 (HP1) beta (from UniProt P83917 1-185)

These are yes or no findings as the source states them, for the method shown. In cells and extracts the contact can be indirect. A yes stands for co-enrichment or nearness to the bait. Other partners may have been found.
